# These are yes or no findings as the source states them, for the method shown. Binding seen in cells or lysates may run through a third protein. Some entries that bind do so weakly or less than the wild type.
# Protein sequences, listed by entry. Tags and fused reporters are not part of them. Lines headed by an entry give the natural chain unless they say otherwise; changes in a name come on top.
# UniProt O00425: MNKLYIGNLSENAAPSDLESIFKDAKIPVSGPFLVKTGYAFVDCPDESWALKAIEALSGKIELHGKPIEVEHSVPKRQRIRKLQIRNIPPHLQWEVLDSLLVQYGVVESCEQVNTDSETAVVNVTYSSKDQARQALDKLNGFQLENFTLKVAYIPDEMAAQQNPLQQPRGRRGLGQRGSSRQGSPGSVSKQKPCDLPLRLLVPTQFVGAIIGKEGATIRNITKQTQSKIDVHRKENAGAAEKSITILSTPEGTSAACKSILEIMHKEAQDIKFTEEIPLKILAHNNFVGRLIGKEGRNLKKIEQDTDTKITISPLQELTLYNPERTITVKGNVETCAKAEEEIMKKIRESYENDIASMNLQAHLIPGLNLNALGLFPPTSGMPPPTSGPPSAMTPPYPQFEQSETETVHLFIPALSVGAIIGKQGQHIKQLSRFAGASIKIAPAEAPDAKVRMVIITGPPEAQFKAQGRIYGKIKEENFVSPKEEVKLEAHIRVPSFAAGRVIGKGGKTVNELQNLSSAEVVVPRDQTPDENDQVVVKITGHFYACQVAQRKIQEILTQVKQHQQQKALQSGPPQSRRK
# UniProt Q14258: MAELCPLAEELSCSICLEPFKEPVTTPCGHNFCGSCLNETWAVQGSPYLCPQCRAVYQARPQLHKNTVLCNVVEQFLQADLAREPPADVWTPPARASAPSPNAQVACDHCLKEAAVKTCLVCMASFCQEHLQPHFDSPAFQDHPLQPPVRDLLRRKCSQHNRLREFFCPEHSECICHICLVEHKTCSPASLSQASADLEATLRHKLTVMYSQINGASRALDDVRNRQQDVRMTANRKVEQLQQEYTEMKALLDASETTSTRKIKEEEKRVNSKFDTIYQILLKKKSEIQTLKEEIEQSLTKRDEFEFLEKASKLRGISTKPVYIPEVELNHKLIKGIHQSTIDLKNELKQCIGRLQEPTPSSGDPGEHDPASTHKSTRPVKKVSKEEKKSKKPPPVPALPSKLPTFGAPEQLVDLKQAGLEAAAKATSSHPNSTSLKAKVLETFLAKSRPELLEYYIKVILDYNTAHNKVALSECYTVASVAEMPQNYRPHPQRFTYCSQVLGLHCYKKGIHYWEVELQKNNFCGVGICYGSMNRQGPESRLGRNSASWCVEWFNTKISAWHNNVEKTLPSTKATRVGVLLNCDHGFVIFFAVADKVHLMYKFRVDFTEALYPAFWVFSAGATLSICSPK
# Legend:
# [1] = target: Full-length IGF2BP3, GFP-tagged (pEGFP-N1) (UniProt O00425); test: co-IP; lysates of SGC7901 and BGC823 cells transfected with GFP-tagged full-length IGF2BP3 or truncations; magnetic beads cross-linked with GFP antibody (Roche), overnight at 4 °C; TRIM25 detected by Western blot
# [2] = target: Insulin like growth factor II mRNA binding protein 3 (IGF2BP3), endogenous (human (endogenous in SGC7901 and BGC823)) (UniProt O00425); test: co-IP; lysates of SGC7901 and BGC823 cells; magnetic beads cross-linked with IGF2BP3 antibody (Abcam) or IgG, overnight at 4 °C; TRIM25 detected by Western blot
# [3] = target: HA-tagged TRIM25 (pCMV3-N-HA-TRIM25) (UniProt Q14258); test: co-IP; lysates of SGC7901 and BGC823 cells with HA-tagged TRIM25; magnetic beads cross-linked with HA antibody (Abmart) or IgG, overnight at 4 °C; IGF2BP3 detected by Western blot
substance,measurement,setting,value
HA-tagged TRIM25 (pCMV3-N-HA-TRIM25) (from UniProt Q14258 1-630),binding,[1],binds
"Tripartite motif-containing 25 (TRIM25), endogenous (from UniProt Q14258 1-630)",binding,[2],binds
"Insulin like growth factor II mRNA binding protein 3 (IGF2BP3), endogenous (from UniProt O00425-1 1-579)",binding,[3],binds
